Tested on: U2OS cells
Settings: 24 h, itraconazole 10 µM, berzosertib 1 µM

Compound | assay interference seen as Hoechst High Intensity Objects
CNCc1ccc(-c2cc(-c3nc(-c4ccc(S(=O)(=O)C(C)C)cc4)cnc3N)on2)cc1 [berzosertib] | fluorescence
CCC(C)n1ncn(-c2ccc(N3CCN(c4ccc(OCC5COC(Cn6cncn6)(c6ccc(Cl)cc6Cl)O5)cc4)CC3)cc2)c1=O (centres unmarked) [itraconazole] | Precipitation
